Source: PMC10541202
Results are given in words; binding and its absence hold for the method and conditions named. Binding seen in cells or lysates may run through a third protein. Some entries that bind do so weakly or less than the wild type.

The chains behind the UniProt entries cited, without tags or fusion partners.
UniProt Q5QD51: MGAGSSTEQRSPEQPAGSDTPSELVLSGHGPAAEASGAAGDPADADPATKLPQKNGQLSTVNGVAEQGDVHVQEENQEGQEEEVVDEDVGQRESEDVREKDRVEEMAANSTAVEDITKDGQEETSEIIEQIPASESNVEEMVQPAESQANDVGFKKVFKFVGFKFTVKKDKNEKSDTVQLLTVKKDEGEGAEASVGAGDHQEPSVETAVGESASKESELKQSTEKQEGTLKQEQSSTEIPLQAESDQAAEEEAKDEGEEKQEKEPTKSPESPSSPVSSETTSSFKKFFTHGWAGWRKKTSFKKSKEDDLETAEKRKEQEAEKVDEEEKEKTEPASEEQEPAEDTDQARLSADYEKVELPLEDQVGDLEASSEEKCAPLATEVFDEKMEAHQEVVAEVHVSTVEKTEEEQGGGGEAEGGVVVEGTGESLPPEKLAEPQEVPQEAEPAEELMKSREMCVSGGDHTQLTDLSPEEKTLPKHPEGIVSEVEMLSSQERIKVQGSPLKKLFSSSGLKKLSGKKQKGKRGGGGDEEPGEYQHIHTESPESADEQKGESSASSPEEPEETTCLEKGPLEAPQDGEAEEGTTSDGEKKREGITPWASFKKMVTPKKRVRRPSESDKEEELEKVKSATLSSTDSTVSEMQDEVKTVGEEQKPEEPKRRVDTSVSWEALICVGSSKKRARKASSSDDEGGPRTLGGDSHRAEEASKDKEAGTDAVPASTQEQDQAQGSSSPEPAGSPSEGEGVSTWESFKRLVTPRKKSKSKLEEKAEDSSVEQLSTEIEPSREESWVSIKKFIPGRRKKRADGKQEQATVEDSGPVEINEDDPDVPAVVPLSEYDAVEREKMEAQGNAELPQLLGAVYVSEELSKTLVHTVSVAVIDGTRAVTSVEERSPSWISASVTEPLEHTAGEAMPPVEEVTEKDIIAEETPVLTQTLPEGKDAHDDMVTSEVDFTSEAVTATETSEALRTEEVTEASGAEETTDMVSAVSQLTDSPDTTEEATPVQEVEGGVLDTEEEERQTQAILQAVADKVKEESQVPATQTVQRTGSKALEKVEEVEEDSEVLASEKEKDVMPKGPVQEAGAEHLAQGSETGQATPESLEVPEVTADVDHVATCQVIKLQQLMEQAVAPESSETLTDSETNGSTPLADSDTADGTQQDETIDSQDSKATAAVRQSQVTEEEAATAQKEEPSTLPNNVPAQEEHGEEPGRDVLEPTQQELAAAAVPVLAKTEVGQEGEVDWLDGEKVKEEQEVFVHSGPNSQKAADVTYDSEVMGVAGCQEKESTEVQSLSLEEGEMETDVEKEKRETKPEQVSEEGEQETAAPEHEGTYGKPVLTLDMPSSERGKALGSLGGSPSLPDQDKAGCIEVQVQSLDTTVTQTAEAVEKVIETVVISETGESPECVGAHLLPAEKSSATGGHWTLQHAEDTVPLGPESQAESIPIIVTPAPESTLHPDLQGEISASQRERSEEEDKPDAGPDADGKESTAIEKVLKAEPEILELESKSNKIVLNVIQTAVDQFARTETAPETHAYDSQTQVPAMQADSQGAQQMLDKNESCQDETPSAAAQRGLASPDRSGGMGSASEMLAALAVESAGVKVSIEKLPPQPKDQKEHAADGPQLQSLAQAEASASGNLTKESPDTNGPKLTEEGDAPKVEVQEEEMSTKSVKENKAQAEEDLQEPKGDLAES
UniProt P12367: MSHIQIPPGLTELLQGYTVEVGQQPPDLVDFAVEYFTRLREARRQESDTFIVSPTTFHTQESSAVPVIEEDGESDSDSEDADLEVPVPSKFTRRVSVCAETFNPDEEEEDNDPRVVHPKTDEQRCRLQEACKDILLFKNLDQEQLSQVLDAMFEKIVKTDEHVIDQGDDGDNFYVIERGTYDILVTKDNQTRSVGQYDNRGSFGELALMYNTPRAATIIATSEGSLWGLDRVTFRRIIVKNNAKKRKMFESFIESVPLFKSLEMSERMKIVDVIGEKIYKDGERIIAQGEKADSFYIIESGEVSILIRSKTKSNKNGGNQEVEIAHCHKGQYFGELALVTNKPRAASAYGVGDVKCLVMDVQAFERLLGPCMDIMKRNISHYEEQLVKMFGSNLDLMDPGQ

Biological target: FLAG-tagged gravin-α (A kinase-anchoring protein 12, AKAP12) (rat) (UniProt Q5QD51)
Assay: co-IP; FLAG-tagged gravin-α in 3T3-L1 adipocytes, without or with the HDAC11 inhibitor FT895; interactions unchanged by FT895

- binding: binds
Substance: PKA RII-α regulatory subunit (from UniProt P12367 1-401)
